Source: the supplement of paper PMC4635364
Where a name gives a salt, the structure may show the parent alone. This is one part of the list. Repeats in this data set agree poorly, so a single value says little.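 Human fetal ventral-midbrain neural progenitor line ReNCell VM, differentiated without mitogens. Images stained for doublecortin (early neurons) or tyrosine hydroxylase (dopaminergic neurons) were scored by blinded raters against untreated wells (0 = no change). Repeats and both raters were averaged, and compounds averaging 2 or higher were picked as hits for retesting.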

What follows are compounds tested on ReNCell VM (assay: neuronal differentiation score (DCX+ cell fraction vs untreated, manual image score) (score (-3 to 3)); higher = more neuronal differentiation). Conditions: library: Prestwick; 2 uM; 2 weeks.

Neuronal differentiation score, inactive:
COC(=O)C1=C(C#N)NC(C)=C(C(=O)OC(C)C)C1c1cccc([N+](=O)[O-])c1 (centres undefined) [Nilvadipine] 0, C[N+]1(CCCCC[N+]2(C)CCCC2)CCCC1 [Pentolinium bitartrate] 0, CCCCC(O)c1ccccc1 (centres undefined) [Fenipentol] 0, CCN(CC)CCc1nc(-c2ccccc2)no1 [Oxalamine citrate salt] 0, CC(=O)[C@H]1CC[C@H]2[C@@H]3C=CC4=CC(=O)CC[C@@]4(C)[C@@H]3CC[C@]12C [Dydrogesterone] 0, CC(=O)O[C@H]1C[C@@H]2CC[C@@H]3[C@H](CC[C@@]4(C)[C@H]3C[C@H]([N+]3(C)CCCCC3)[C@@H]4OC(C)=O)[C@@]2(C)C[C@@H]1N1CCCCC1 [Vecuronium bromide] 0, CC(C)(C)NC[C@@H](O)COc1cccc2c1CCCC2=O [(+) -Levobunolol hydrochloride] 0, CCCSc1ccc2[nH]c(NC(=O)OC)nc2c1 [Albendazole] 0

Same assay, conditions: library: Spectrum; 2 uM; 2 weeks

Neuronal differentiation score, inactive:
CC(C)(C)CC(C)(C)c1ccc(O)c(Cc2ccc(Cl)cc2Cl)c1 0, O=C1OCCN1/N=C/c1ccc([N+](=O)[O-])o1 0, CC(=O)Oc1ccccc1C(=O)O 0, CCn1cc(C(=O)O)c(=O)c2cc(F)c(N3CCNC(C)C3)c(F)c21 (centres undefined) 1, COc1c(O)cc(O)cc1O 0, Clc1ccccc1CN1CCc2sccc2C1 0, C#C[C@]1(O)CC[C@H]2[C@@H]3[C@H](C)CC4=C(CCC(=O)C4)[C@H]3CC[C@@]21C 0, CCCCCC(=O)Cc1cc(O)cc(O)c1C(=O)Oc1cc(CC(=O)CCCCC)c(C(=O)O)c(OC)c1 0, CC1(C)C(=O)C=C[C@]2(C)[C@H]3CC[C@@]4(C)[C@H](c5ccoc5)OC(=O)[C@H]5O[C@]54[C@]3(C)C(=O)C[C@@H]12 0, CC(=O)Oc1cc(OC(C)=O)c2c(c1)O[C@H](c1ccc(OC(C)=O)c(OC(C)=O)c1)[C@H](OC(C)=O)C2 0, CC(C)=CC1C(C(=O)O)C1(C)C (centres undefined) 0, CC(COc1ccccc1)NC(C)C(O)c1ccc(O)cc1 (centres undefined) 0, COc1ccc2c(c1OC)C(=O)O[C@@H]2[C@H]1c2c(cc3c(c2OC)OCO3)CCN1C 0, CCCCCCCC/C=C/CCCCCCCCOP(=O)([O-])OCC[N+](C)(C)C 0, CC(=O)[C@H]1CC[C@H]2[C@@H]3CC=C4C[C@@H](O)CC[C@]4(C)[C@H]3CC[C@]12C 0, O=C(C=Cc1ccc(O)cc1)c1ccccc1O 0, CN1C2CCCC1CC(NC(=O)c1nn(C)c3ccccc13)C2 (centres undefined) 0, O.O.O=C([O-])CN(CCN(CC(=O)[O-])CC(=O)O)CC(=O)O.[Na+].[Na+] 0, C[C@H](CCC(=O)O)[C@H]1CC[C@H]2[C@@H]3CC[C@@H]4C[C@H](O)CC[C@]4(C)[C@H]3CC[C@]12C 0, O=C(O)C1=C(CSc2nnnn2CS(=O)(=O)O)CS[C@@H]2[C@H](NC(=O)[C@H](O)c3ccccc3)C(=O)N12 0, C#C[C@]1(O)CC[C@H]2[C@@H]3CCc4cc(OC)ccc4[C@H]3CC[C@@]21C 0
